Values from PubChem BioAssay AID1053208 (Peter MacCallum Cancer Centre, 2014)
Purpose: 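Synthetic lethal interactions between gene loss and doxorubicin in osteosarcoma cells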 (primary screen). System: mouse osteosarcoma cells, early-passage culture from an engineered mouse model of fibroblastic bone tumour. Knock-down reagent: siRNA pool against mouse genes, 40 nM. Timing: about 120 h (48 h before drug, then 72 h with drug). Treatment: doxorubicin 100 nM for 72 h, roughly 30-40% inhibitory dose. Read-out: 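Viability read as ATP luminescence after 72 h of 100 nM doxorubicin or none, duplicate wells averaged, scaled to non-targeting siRNA, then expressed as robust z-scores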. Reading the numbers: viability z-score with doxorubicin: higher = more viable cells under doxorubicin; viability z-score without drug: higher = more viable cells with knock-down alone; z-score of drug to no-drug ratio: higher = less drug sensitisation by knock-down. Rule for the call: 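Called active if knock-down leaves viability unchanged without drug (z within -2 to 2) but lowers it with doxorubicin (z at or under -2)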.
This is one part, drawn at random, of about 17,000 reagents. 788 of them (4.7%) count as active. 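Calls rest on z-score classes alone; an extra cut-off of viability at most 70% of control was not applied to them.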 Unmarked entries are inactive. Not all columns of the deposit are shown.

| target | combined z-score class | viability z-score with doxorubicin | viability z-score without drug | z-score of drug to no-drug ratio |
| --- | --- | --- | --- | --- |
| Stn1 (STN1, CST complex subunit) | no change with or without drug | -0.45 | 0.17 | -0.45 |
| Klhdc1 (kelch domain containing 1) | no change with or without drug | -0.22 | 0.34 | -0.34 |
| Bcar3 (breast cancer anti-estrogen resistance 3) | no change with or without drug | 1.01 | -0.17 | 1.35 |
| Nudt21 (nudix hydrolase 21) | no change with or without drug | 1.35 | -0.17 | 1.69 |
| Zswim9 (zinc finger SWIM-type containing 9) | no change with or without drug | -0.45 | 0.17 | -0.45 |
| Kcnd1 | high cell count without drug only | 0.79 | 2.7 | -0.79 |
| Zfp473 (zinc finger protein 473) | no change with or without drug | 0.67 | -0.34 | 1.12 |
| Ramp1 (receptor (calcitonin) activity modifying protein 1) | no change with or without drug | 0.9 | -0.17 | 1.24 |
| Fhl4 (four and a half LIM domains 4) | no change with or without drug | -0.11 | -1.18 | 0.9 |
| Ppp1ca (protein phosphatase 1 catalytic subunit alpha) | no change with or without drug | -1.57 | -1.52 | -0.56 |
| Cngb3 (cyclic nucleotide gated channel beta 3) | no change with or without drug | 0.45 | -0.17 | 0.67 |
| S1pr1 (sphingosine-1-phosphate receptor 1) | no change with or without drug | -0.45 | -1.18 | 0.45 |
| Srpk1 (serine/arginine-rich protein specific kinase 1) | no change with or without drug | 0.45 | 0.67 | 0.11 |
| Cyp2d34 (cytochrome P450, family 2, subfamily d, polypeptide 34) | no change with or without drug | -0.34 | -0.17 | -0.11 |
| Apof (apolipoprotein F) | no change with or without drug | 1.8 | 0 | 2.02 |
| Mns1 (meiosis-specific nuclear structural protein 1) | no change with or without drug | -0.9 | -1.18 | 0 |
| Pou3f4 (POU domain, class 3, transcription factor 4) | high cell count without drug only | 1.8 | 2.36 | 0.34 |
| Myh14 (myosin, heavy polypeptide 14) | no change with or without drug | -0.79 | 1.18 | -1.46 |
| Mterf1b (mitochondrial transcription termination factor 1b) | no change with or without drug | -0.22 | 0.51 | -0.45 |
| Bst1 (bone marrow stromal cell antigen 1) | no change with or without drug | 0.34 | 1.18 | -0.34 |
| Akr1d1 (aldo-keto reductase family 1, member D1) | no change with or without drug | -0.67 | -0.51 | -0.22 |
| Plekho1 (pleckstrin homology domain containing O1) | no change with or without drug | 0.11 | 1.18 | -0.56 |
| Or6c214 (olfactory receptor family 6 subfamily C member 214) | no change with or without drug | -0.22 | -0.67 | 0.34 |
| Clec9a (C-type lectin domain family 9, member a) | no change with or without drug | -1.91 | -1.18 | -1.12 |
| Unc5cl (unc-5 family C-terminal like) | low cell count with doxorubicin only (active) | -2.02 | -1.52 | -1.12 |
| Gsta3 (glutathione S-transferase, alpha 3) | no change with or without drug | -1.57 | -0.51 | -1.24 |
| Cdk5 (cyclin dependent kinase 5) | no change with or without drug | 1.12 | -0.67 | 1.8 |
| Aldoart1 (aldolase 1 A, retrogene 1) | high cell count without drug only | -1.01 | 2.87 | -2.47 |
| Palm (paralemmin) | no change with or without drug | -1.35 | -0.17 | -1.24 |
| Enoph1 (enolase-phosphatase 1) | high cell count with and without drug | 2.36 | 3.04 | 0.45 |
| Flii (flightless I actin binding protein) | no change with or without drug | 0.67 | 1.18 | 0 |
| Polh (polymerase (DNA directed), eta (RAD 30 related)) | no change with or without drug | -0.67 | -0.17 | -0.45 |
| Tmem147 (transmembrane protein 147) | no change with or without drug | -0.45 | 0 | -0.34 |
| Cuedc1 (CUE domain containing 1) | no change with or without drug | -0.9 | -0.51 | -0.56 |
| Aoc1l3 (amine oxidase copper containing 1-like 3) | no change with or without drug | 0.11 | 0.51 | -0.11 |
| Brat1 (BRCA1-associated ATM activator 1) | low cell count with doxorubicin only (active) | -3.37 | 0.17 | -3.48 |
| Ppih (peptidyl prolyl isomerase H) | no change with or without drug | -0.67 | -0.84 | 0 |
| Bex2 (brain expressed X-linked 2) | no change with or without drug | 0 | -1.52 | 1.24 |
| Lama2 (laminin, alpha 2) | high cell count without drug only | 0.56 | 2.7 | -1.01 |
| Zfp146 (zinc finger protein 146) | no change with or without drug | 0 | 1.01 | -0.56 |
| 1700024B05Rik (RIKEN cDNA 1700024B05 gene) | high cell count with and without drug | 2.81 | 2.7 | 1.01 |
| Agpat2 (1-acylglycerol-3-phosphate O-acyltransferase 2) | no change with or without drug | -1.57 | -0.84 | -1.01 |
| Pcgf1 (polycomb group ring finger 1) | no change with or without drug | 0.34 | 0.17 | 0.34 |
| Havcr1 (hepatitis A virus cellular receptor 1) | no change with or without drug | -0.45 | -0.17 | -0.22 |
| Atl2 (atlastin GTPase 2) | no change with or without drug | 0.11 | -0.84 | 0.9 |
| Phlda3 (pleckstrin homology like domain, family A, member 3) | no change with or without drug | 0.34 | -0.51 | 0.79 |
| Usp11 (ubiquitin specific peptidase 11) | no change with or without drug | -0.9 | -0.67 | -0.34 |
| Sspn (sarcospan) | no change with or without drug | -0.22 | -1.52 | 1.01 |
| Tlr13 (toll-like receptor 13) | no change with or without drug | 0.67 | -0.51 | 1.24 |
| Ulk4 (unc-51-like kinase 4) | no change with or without drug | 0.22 | 0.67 | -0.11 |
